From US20110123525A1 (THROMBOGENICS N V, published 2011)
These are yes or no findings as the source states them, for the method shown. Some results given as binding are weak or reduced against the parent protein; the word gives no strength.

T1: human PlGF-1 (human, UniProt P49763-2 19-149, limits assumed)
T1 construct: also called huPlGF-1; huPlGF
T1 sequence (looked up): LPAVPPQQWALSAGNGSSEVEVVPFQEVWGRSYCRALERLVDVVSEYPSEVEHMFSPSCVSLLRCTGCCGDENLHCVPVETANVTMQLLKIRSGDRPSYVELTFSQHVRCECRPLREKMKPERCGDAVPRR


Tests used:
human PlGF-1 [1] = target: T1, human PlGF-1; experiment: ELISA, huPlGF-1 coated, detected with anti-HA
human PlGF-1 [2] = target: T1, human PlGF-1; experiment: ELISA, plate coated with 1 µg/ml huPlGF-1, detection with murine anti-HA and goat anti-murine IgG-HRP, OPD
Experimental: ELISA plates were coated ON with 1 μg/ml huPlGF-1 in PBS, 200 μL/well, 4° C. After blocking with 1% BSA, 1 hr, RT, a dilution series of scFv16D3/humanized scFv16D3 was added, 200 μL/well, the antibody fragment was allowed to bind for 1 hr, RT. Bound scFv16D3 was detected with murine anti-HA (180 μL/well, 1 hr RT) followed by incubation with goat-anti-murine IgG-HRP (Sigma), 170 μL/well, 1 hr, RT. The assay was developed with OPD.

Row | binding (human PlGF-1 [1]) | binding (human PlGF-1 [2]) | Binder
1 | binds | binds | humanized scFv of 16D3 (scFv, also called humanized scFv16D3; scFvhp16D3mut) scFv: QVQLQQSGAELVKPGASVKISCKASGYTFTDYYINWVKLAPGQGLEWIGWIYPGSGNTKYNEKFKGKATLTIDTSSSTAYMQLSSLTSEDTAVYFCVRDSPFFDYWGQGTLLTVSSGGGGSGGGGSGGGGSDIVLTQSPDSLAVSLGERVTMNCKSSQSLLNSGMRKSFLAWYQQKPGQSPKLLIYWASTRESGVPDRFTGSGSGTDFTLTISSVQAEDVAVYYCKQSYHLFTFGSGTKLEIKGSYPYDVPDYAGSHHHHHH
2 | binds | binds | scFv of murine antibody 16D3 (scFv, also called scFv16D3; scFv hp16D3) scFv: QIQLQQSGPELVKPGASVKISCKASGYTFTDYYINWVKLKPGQGLEWIGWIYPGSGNTKYNEKFKGKATLTIDTSSSTAYMQLSSLTSEDTAVYFCVRDSPFFDYWGQGTTLTVSSGGGGSGGGGSGGGGSDIVLSQSPSSLAVSAGEKVTMRCKSSQSLLNSGMRKSFLAWYQQKPGQSPKLLIYWASTRESGVPDRFTGSGSGTDFTLTISSVQAEDLAVYYCKQSYHLFTFGSGTKLEIKGSYPYDVPDYAGSHHHHHH
